Laboratory results: publication PMC7848731
Construct, isoform or probe ends are uncertain for at least one entry. For some assays here: The comparison behind a weaker result is the experiment's own reference, which may not be listed here.

Assays:
PrpA [1] = target: T1, PrpA (UniProt A0A0U3H4C4); test: EMSA; conditions: EMSA: 0.1 pmol probe in 20 ul, 1x LightShift Binding buffer, 2.5% glycerol, 0.05% NP40, 50 mM added KCl, 5 mM MgCl2, 0.25 ug poly(dI:dC), 25 C 2 h, recombinant protein, residues 1-86, protein details: C-terminal His, probe letters rebuilt from the primers and the genome, part of a longer molecule
RepB [2] = test: DNase I footprinting; conditions: 36-bp site; footprinting: 5 pmol FAM probe in 50 ul, same buffer, 25 C 2 h; recombinant protein; residues 1-485; protein details: C-terminal His; label: biotin (EMSA) or FAM (footprinting) on M13F end; probe letters rebuilt from the primers and the genome; part of a longer molecule
PrpA [3] = target: T1, PrpA; test: DNase I footprinting; conditions: footprinting: 5 pmol FAM probe in 50 ul, same buffer, 25 C 2 h, recombinant protein, residues 1-86, protein details: C-terminal His, label: biotin (EMSA) or FAM (footprinting) on M13F end, probe letters rebuilt from the primers and the genome, part of a longer molecule
RepB [4] = test: competition EMSA; conditions: displaces PrpA at RepB/PrpA >= 1; EMSA: 0.1 pmol probe in 20 ul, 1x LightShift Binding buffer, 2.5% glycerol, 0.05% NP40, 50 mM added KCl, 5 mM MgCl2, 0.25 ug poly(dI:dC), 25 C 2 h; recombinant protein; residues 1-485; protein details: C-terminal His; label: biotin (EMSA) or FAM (footprinting) on M13F end; probe letters rebuilt from the primers and the genome; part of a longer molecule
PrpA [5] = target: T1, PrpA; test: competition EMSA; conditions: displaces RepB at PrpA/RepB >= 1, not effectively at < 1; EMSA: 0.1 pmol probe in 20 ul, 1x LightShift Binding buffer, 2.5% glycerol, 0.05% NP40, 50 mM added KCl, 5 mM MgCl2, 0.25 ug poly(dI:dC), 25 C 2 h; recombinant protein; residues 1-86; protein details: C-terminal His; label: biotin (EMSA) or FAM (footprinting) on M13F end; probe letters rebuilt from the primers and the genome; part of a longer molecule
PrpA1-54 = PrpA1-54 (UniProt A0A0U3H4C4); test: EMSA; conditions: EMSA: 0.1 pmol probe in 20 ul, 1x LightShift Binding buffer, 2.5% glycerol, 0.05% NP40, 50 mM added KCl, 5 mM MgCl2, 0.25 ug poly(dI:dC), 25 C 2 h, recombinant protein, residues 1-54, protein details: C-terminal His, label: biotin (EMSA) or FAM (footprinting) on M13F end, probe letters rebuilt from the primers and the genome, part of a longer molecule
RepB [6] = test: EMSA; conditions: EMSA: 0.1 pmol probe in 20 ul, 1x LightShift Binding buffer, 2.5% glycerol, 0.05% NP40, 50 mM added KCl, 5 mM MgCl2, 0.25 ug poly(dI:dC), 25 C 2 h; recombinant protein; residues 1-485; protein details: C-terminal His; label: biotin (EMSA) or FAM (footprinting) on M13F end; probe letters rebuilt from the primers and the genome; part of a longer molecule
[7] = label: biotin (EMSA) or FAM (footprinting) on M13F end

CTAAGGTGTAGTGTTGTACGAATAAGGTGTAGAATTTTACGGGCTAACGTGTATTTTTTTACGGGTGTACCCGAATTATTTCGTACTTTACTACACATTTAACAGTACATAGCTACACATACCCTCGTACAAACCTACACGCAAACCGTACAAAGCTACACTATAGCGCGCCGCGGGCCTACACGATGCCGTACAAAGCTACACCATAGAATTATTATATCTATACGCCCCGGGCACTTACAATTTATAGCACTAGATCGATCTGATCTATATATAGATCTTAACTAATAGATCGATCTGATCGTTATTTTGATTTATTCAAAAGCCCAATGCGTAAAATACTACACAACTCCGCATGTGCTGAACGATCAACAAAGTAAGTACGACCCCCTATTTT (double strand) [mutant ori probe (oriGC)]
binding result (PrpA [1]; label: biotin on M13F end): binds more weakly

CTAAGGTGTAGTGTTGTACGAATAAGGTGTAGAATTTTACGGGCTAACGTGTATTTTTTTACGGGTGTACCCGAATTATTTCGTACTTTACTACACATTTAACAGTACATAGCTACACATACCCTCGTACAAACCTACACGCAAACCGTACAAAGCTACACTATAGCGTATTACAAACCTACACGATGCCGTACAAAGCTACACCATAGAATTATTATATCTATATATTTCAAATACTTACAATTTATAGCACTAGATCGATCTGATCTATATATAGATCTTAACTAATAGATCGATCTGATCGTTATTTTGATTTATTCAAAAGCCCAATGCGTAAAATACTACACAACTCCGCATGTGCTGAACGATCAACAAAGTAAGTACGACCCCCTATTTT (double strand) [pMBL6842 ori probe]
binding result (RepB [2]): binds
binding result (PrpA [3]; covers iterons 1 and 2): binds
binding result (RepB [4]): binds
binding result (PrpA [5]): binds
binding result (PrpA1-54; as efficient as full-length PrpA): binds
binding result (RepB [6]): binds
binding result (PrpA [1]; [7]): binds

CTTTTCAACCCGTTGTTCATTATATCGAATTTGACTTCGACTCAACCGACTTACCGGGCCACGCCGCTGATGTCCTGGCGCCCCATATTACATATCTCACCACGCATCCGAATGAGCGGATCTTAATTCAGGGCGCAGGCGACACGTCGGGTACCTTTGCCTACAATTATCAGCTGGGACTGGCGCGGGCCCGGGCAGTCATGCGTCACCTCACGGATGCCGGCATTGACGCGCAGCGCATTAAAGTCGTGTCTGTGTCTAAGGCCAATGCCCGGCAAAAATCCTACACGCGCACCGCGCACCTGGTTTACTGACGCCTCTGCGCACACCCGTCATGGTAGTTTGTAATGATATGTCTTATAATTGACCAGGTAGACCCTGACAAGAAAAGAGGCTCAGT (double strand) [prpAT promoter probe]
binding result (PrpA [3]; 30-bp protected region): binds
binding result (PrpA1-54): binds
binding result (PrpA [1]; [7]): binds
